Assay results reported in PubChem BioAssay AID434947 (Broad Institute, 2010).
About 15 (0.7%) of roughly 2,200 compounds were called active.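 The calls were made as follows: active = fitted half-maximal concentration for loss of luminescence signal no more than a set limit of log units above the top tested concentration; inconclusive = flat fit with 30 to 70% signal loss, or invalid fit; inactive = half-maximal concentration above that set limit.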 This is one part of the list.

Test: inhibitors of ADP-Glo detection reagents, dose response, artefact control for GSK3beta inhibitor project, biochemical, luminescence, cell-free, homogeneous (AID 434947);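 also: kinase-free counter screen of ADP-Glo detection reagents for GSK3beta hits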
Conditions: 5 uM ADP

EC50, inactive:
CNc1nc2c(N)ncnc2n1[C@H]1O[C@@H](CO)[C@H](O)[C@@H]1O > 30 µM
COc1ccc2nc(C)cc(Nc3ccc(N4CCN(C)CC4)cc3)c2c1 > 30 µM
COc1cccc(C(CC(=O)NCc2ccco2)NS(=O)(=O)c2ccc(C)cc2)c1OC (configuration not stated) > 30 µM
CCN1CCN(c2ccc(S(=O)(=O)N3CCOCC3)cc2NC(=O)c2ccc(Cl)cc2Cl)CC1 > 30 µM
Cc1ccc(Sc2ccc(/C=N/O)cc2[N+](=O)[O-])cc1 > 30 µM
N#Cc1c(-c2ccccc2)nc(SCC(=O)N(c2ccccc2)c2ccccc2)[nH]c1=O > 30 µM
O=C(CCc1ccccc1)Nc1ccc2c(c1)OCCO2 > 30 µM
COc1ccc(CCN(C)C(=O)c2ccc(S(=O)(=O)Nc3ccccc3C)cc2)cc1OC > 30 µM
c1ccc(CSc2ccc3nnc(-c4cccnc4)n3n2)cc1 > 30 µM
Cc1cn(C2OC(COC(=O)c3ccccc3)C(O)C2O)c(=O)[nH]c1=O (configuration not stated) > 30 µM
COc1ccc(-c2noc(CSc3nnc(-c4ccccc4)n3C)n2)cc1 > 30 µM
CCOC(=O)c1c(-c2ccccc2)oc2ccc(OCC(=O)NNC(=O)CCCC(=O)O)cc12 > 30 µM
CCOC(=O)C1=C(CN2CCSCC2)NC(=O)NC1c1cc(C)ccc1C (configuration not stated) > 30 µM
CSc1nc(NCCCN(C)C)c2c3c(sc2n1)CN(C)CC3 > 30 µM
c1cncc(-c2nc(NCCCn3ccnc3)c3ccccc3n2)c1 > 30 µM
Cc1c(C#N)c(O)[nH]c(=O)c1N=Nc1ccc(Br)cc1C(=O)O > 30 µM
CC1(C)Oc2ccc(C(=O)N3CCOCC3)cc2N(CC(=O)N2CCOCC2)C1=O > 30 µM
CN1CCc2c(sc3c2c(=O)n(-c2ccccc2)c2nnc(SCc4ccc(Cl)cc4)n32)C1 > 30 µM
CCOC(=O)c1cnc2ccc(OC)cc2c1NCCc1ccc(OC)c(OC)c1 > 30 µM
COCCN=C1Sc2nc3c(C)cccc3cc2CN1Cc1ccco1 > 30 µM
COC(=O)c1sc(=S)n(Cc2ccccc2)c1C > 30 µM
N/C(Cc1nc2ccccc2s1)=N\O > 30 µM
CCOc1cc(C2Nc3ccccc3NC3=C2C(=O)CC(C)(C)C3)ccc1O (configuration not stated) > 30 µM
CSc1nc2ncc3c(n2n1)CC1c2ccccc2CCN1C3=O (configuration not stated) > 30 µM
Cc1cc(C)n(S(=O)(=O)c2ccc(C)c(C)c2)n1 > 30 µM
O=C(c1cccnc1)C1CCCN(Cc2nc(Cc3ccccc3)no2)C1 (configuration not stated) > 30 µM
Cn1nnc2sc3c(c2c1=O)CCCC3 > 30 µM
C=CCN1C(=O)C(Cc2ccc(Br)cc2)S/C1=N\N=C\c1ccco1 (configuration not stated) > 30 µM
COC(=O)c1cccc(Nc2nc(-c3ccncc3)nc3ccccc23)c1 > 30 µM
Clc1ccccc1CSc1nnc(-c2ccncc2)o1 > 30 µM
CCCOC1CCCN(Cc2cn(C)nc2-c2ccccc2F)C1 (configuration not stated) > 30 µM
CCCCC(=O)Nc1ccc(C(=O)NNC(=O)CCCOc2ccc(Cl)cc2Cl)cc1 > 30 µM
COCCn1c(SCC(=O)Nc2ccc(S(N)(=O)=O)cc2)nc2ccccc21 > 30 µM
Nc1nc(NC2CCCCC2)nc(NCCO)c1[N+](=O)[O-] > 30 µM
Cc1ccccc1-n1nnc2c(=O)oc3ccccc3c21 > 30 µM
COc1ccccc1/C=C/C=C1\Oc2c(ccc(O)c2CN2CCN(CCO)CC2)C1=O > 30 µM
CCc1nnc(NC(=O)c2cc(-c3ccccc3)nn2-c2ccccc2)s1 > 30 µM
Nc1nc(NCCO)nc(NCC2CCCO2)c1[N+](=O)[O-] (configuration not stated) > 30 µM
CSc1nc(NCC(C)O)c2c3c(sc2n1)CN(C)CC3 (configuration not stated) > 30 µM
CCCCCCNC(=O)C(C(=O)OCC)C1CCCCC1 (configuration not stated) > 30 µM
CCCCc1cc(=O)oc2cc(C)cc(OCc3nn[nH]n3)c12 > 30 µM
O=C(Nc1ccc(O)c2c(=O)cc(-c3ccccc3Cl)oc12)c1ccc(F)cc1 > 30 µM
Cc1cccc(Nc2nc(NCC3CCCO3)nc(N)c2[N+](=O)[O-])c1 (configuration not stated) > 30 µM
Cc1c(CCOC(=O)CC23CC4CC(CC(C4)C2)C3)sc[n+]1CC(=O)c1ccc(Br)cc1 > 30 µM
CN(C)c1nc(N)c([N+](=O)[O-])c(NCCO)n1 > 30 µM
O=C(CN1C(=O)CCC1=O)Nc1cccc(NC(=O)CN2C(=O)CCC2=O)c1 > 30 µM
O=C(Cc1ccc(Cl)cc1)Nc1ncc([N+](=O)[O-])s1 > 30 µM
COc1cc(C(c2nnnn2C(C)(C)C)N2CCN(c3nc4ccccc4s3)CC2)ccc1O (configuration not stated) > 30 µM
COc1cccc2cc(C(=O)NCc3ccccc3Br)c(=O)oc12 > 30 µM
COc1ccc(CCNc2c(C=O)c(=O)[nH]c3ccccc23)cc1OC > 30 µM
COC(=O)c1nnn(-c2nonc2N)c1CSc1nnc(C)s1 > 30 µM
Cc1c(Cl)cccc1NC(=S)N(C)CCC#N > 30 µM
O=C(O)CCn1cc(C(=O)O)c(-c2ccccc2)n1 > 30 µM
Cc1ccc(-c2nn(-c3ccccc3)cc2/C=N/n2c(-c3cccs3)n[nH]c2=S)cc1 > 30 µM
CCOC(=O)c1c(S(=O)(=O)NCC(=O)NCc2ccc(C)cc2)c(C)n(C)c1C > 30 µM
CCCn1nc(NC(=O)C2CCCO2)c2cc3ccc(C)cc3nc21 (configuration not stated) > 30 µM
Cc1ccc2c(c1)NC(=O)c1cc([N+](=O)[O-])ccc1O2 > 30 µM
CC(=O)c1ccc(NC(=O)CN2C(=O)CCC2=O)cc1 > 30 µM
Cc1ccc(S(=O)(=O)NC(=NC(C)C(=O)O)c2ccccc2)cc1 (configuration not stated) > 10 µM
CCc1nc2oc3cc(OC)ccc3c(=O)c2c(=O)n1Cc1ccccc1 > 30 µM
Clc1ccc2[nH]c3c(c2c1)CCc1cn[nH]c1-3 > 30 µM
CCOC(=O)c1cnc2ccc(OC)cc2c1Nc1ccc(N2CCN(C)CC2)cc1 > 30 µM
COc1ccccc1N1CCN(C(=O)Cn2nnc(-c3ccncc3)n2)CC1 > 30 µM
CCOC(=O)c1cnc2ccc(C)cc2c1Nc1ccc(N2CCOCC2)cc1 > 30 µM
O=C(c1ccncc1)N1CCN(C(=O)c2ccco2)CC1 > 30 µM
Oc1ccc2oc3c(c2c1)CCCC3 > 30 µM
O/N=C/c1ccc(OCc2ccccc2)c(Cl)c1 > 30 µM
CC[n+]1c(/C=C/N(C)c2ccccc2)oc2ccc(Cl)cc21 > 30 µM
COc1ccc2cc(C(=O)CS(=O)(=O)c3ccccc3)c(=O)oc2c1 > 30 µM
CCN(CCNC(=O)CN(C)S(=O)(=O)c1cccc2nsnc12)c1ccccc1 > 30 µM
CCOC(=O)c1cnc2c(C)cccc2c1Nc1ccc(N2CCOCC2)cc1 > 30 µM
CCOCCOC(=O)c1ccc(-n2cnc(C)n2)nc1 > 30 µM
COc1cc(/C=N/Nc2ccc([N+](=O)[O-])cn2)cc(OC)c1O > 30 µM
CNC(=O)c1ccsc1NC(=O)C1CCN(S(=O)(=O)c2ccc(Cl)s2)CC1 > 30 µM
O=C(Nc1ccnc(-c2cccnc2)n1)c1ccc(Cl)c(Cl)c1 > 30 µM
O=C(NCc1ccco1)C(=O)c1cn(CC(=O)N2CCCC2)c2ccccc12 > 30 µM
CNc1nc(N)c([N+](=O)[O-])c(NCCO)n1 > 30 µM
CCOc1ccc(C2=CSC3=NCCN23)cc1[N+](=O)[O-] > 30 µM
O=C(O)CC1S/C(=N/N=C/c2ccc(-c3ccc(Cl)c([N+](=O)[O-])c3)o2)NC1=O (configuration not stated) > 30 µM
CC(=O)N1CCc2c(sc(NC(=O)C3CCCCC3)c2C(N)=O)C1 > 30 µM
CC1(C)CC(=O)C=C(Nc2ccccc2F)C1 > 30 µM
CC1=C(C(=O)N2CCCCC2)C(c2cccs2)C2=C(CCCC2=O)N1 (configuration not stated) > 30 µM
Cc1ccc2c(c1)C1CN(C)CCC1N2C(=S)Nc1ccc(Cl)cc1Cl (configuration not stated) > 30 µM
COc1cccc2cc(C(=O)CS(=O)(=O)c3ccc(C(C)(C)C)cc3)c(=O)oc12 > 30 µM
Nc1nc(Nc2cccc(Cl)c2)nc(NCc2ccco2)c1[N+](=O)[O-] > 30 µM
COc1ccc2c(c1)C(=O)Nc1cc(Cl)ccc1N2 > 30 µM
CC1(C)CC(=O)C=C(Nc2ccc(F)cc2F)C1 > 30 µM
COc1cc(C(=O)Nc2cccc(-c3nc4ncccc4o3)c2C)cc(OC)c1OC > 30 µM
Cc1ccccc1C(=O)Nc1ccc(O)c2c(=O)cc(-c3ccccc3Cl)oc12 > 30 µM
c1ccc(-c2nc(-c3ccco3)n3ccccc23)cc1 > 30 µM
O=c1cc(-c2ccccc2)oc2cc(O)cc(O)c12 > 30 µM
COc1cc(/C=N/NC(=O)c2ccc(O)cc2)ccc1Oc1ccc([N+](=O)[O-])cn1 > 30 µM

Some of these compounds in order of heavy-atom count, smallest number first.
EC50, inactive:
Oc1ccc2oc3c(c2c1)CCCC3 > 30 µM
Cn1nnc2sc3c(c2c1=O)CCCC3 > 30 µM
CNc1nc(N)c([N+](=O)[O-])c(NCCO)n1 > 30 µM
Clc1ccc2[nH]c3c(c2c1)CCc1cn[nH]c1-3 > 30 µM
CC1(C)CC(=O)C=C(Nc2ccc(F)cc2F)C1 > 30 µM
O=c1cc(-c2ccccc2)oc2cc(O)cc(O)c12 > 30 µM
Cc1ccc(Sc2ccc(/C=N/O)cc2[N+](=O)[O-])cc1 > 30 µM
CNc1nc2c(N)ncnc2n1[C@H]1O[C@@H](CO)[C@H](O)[C@@H]1O > 30 µM
CC[n+]1c(/C=C/N(C)c2ccccc2)oc2ccc(Cl)cc21 > 30 µM
CSc1nc(NCCCN(C)C)c2c3c(sc2n1)CN(C)CC3 > 30 µM
CCCOC1CCCN(Cc2cn(C)nc2-c2ccccc2F)C1 (configuration not stated) > 30 µM
Cc1cccc(Nc2nc(NCC3CCCO3)nc(N)c2[N+](=O)[O-])c1 (configuration not stated) > 30 µM
Cc1cn(C2OC(COC(=O)c3ccccc3)C(O)C2O)c(=O)[nH]c1=O (configuration not stated) > 30 µM
COc1ccc(-c2noc(CSc3nnc(-c4ccccc4)n3C)n2)cc1 > 30 µM
COCCn1c(SCC(=O)Nc2ccc(S(N)(=O)=O)cc2)nc2ccccc21 > 30 µM
Cc1ccccc1C(=O)Nc1ccc(O)c2c(=O)cc(-c3ccccc3Cl)oc12 > 30 µM
CCOC(=O)c1cnc2ccc(OC)cc2c1NCCc1ccc(OC)c(OC)c1 > 30 µM
Cc1ccc(-c2nn(-c3ccccc3)cc2/C=N/n2c(-c3cccs3)n[nH]c2=S)cc1 > 30 µM
Cc1c(CCOC(=O)CC23CC4CC(CC(C4)C2)C3)sc[n+]1CC(=O)c1ccc(Br)cc1 > 30 µM
CN1CCc2c(sc3c2c(=O)n(-c2ccccc2)c2nnc(SCc4ccc(Cl)cc4)n32)C1 > 30 µM
COc1cc(C(c2nnnn2C(C)(C)C)N2CCN(c3nc4ccccc4s3)CC2)ccc1O (configuration not stated) > 30 µM

Grouped by structure: the compounds so far with a tert-butyl group (2)
EC50, inactive:
COc1cc(C(c2nnnn2C(C)(C)C)N2CCN(c3nc4ccccc4s3)CC2)ccc1O (configuration not stated) > 30 µM
COc1cccc2cc(C(=O)CS(=O)(=O)c3ccc(C(C)(C)C)cc3)c(=O)oc12 > 30 µM
